Test results from the supplement of paper PMC11732987, “Enantioselective OTUD7B fragment discovery through chemoproteomics screening and high-throughput optimisation” (Communications Chemistry, 2025).
The list shows a part of the results. The data scatter; read single values as rough.

By UniProt entry, the sequences of proteins in these tests, tags left out. Where a name states a change or a piece, a line headed by the entry shows the natural chain unless it says otherwise. Residues count along the entry.
UniProt Q9H4Z3, 246-265: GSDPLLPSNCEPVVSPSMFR
UniProt Q96MG8: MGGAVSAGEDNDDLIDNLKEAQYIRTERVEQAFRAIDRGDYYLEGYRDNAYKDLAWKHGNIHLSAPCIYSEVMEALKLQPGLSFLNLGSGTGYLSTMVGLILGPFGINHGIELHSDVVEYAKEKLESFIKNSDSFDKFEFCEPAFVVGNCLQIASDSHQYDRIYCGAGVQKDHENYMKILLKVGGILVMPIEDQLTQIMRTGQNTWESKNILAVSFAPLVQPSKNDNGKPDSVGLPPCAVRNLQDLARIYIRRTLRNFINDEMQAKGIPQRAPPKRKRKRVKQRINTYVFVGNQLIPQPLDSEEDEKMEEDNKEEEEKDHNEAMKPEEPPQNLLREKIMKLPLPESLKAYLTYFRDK
UniProt Q13370: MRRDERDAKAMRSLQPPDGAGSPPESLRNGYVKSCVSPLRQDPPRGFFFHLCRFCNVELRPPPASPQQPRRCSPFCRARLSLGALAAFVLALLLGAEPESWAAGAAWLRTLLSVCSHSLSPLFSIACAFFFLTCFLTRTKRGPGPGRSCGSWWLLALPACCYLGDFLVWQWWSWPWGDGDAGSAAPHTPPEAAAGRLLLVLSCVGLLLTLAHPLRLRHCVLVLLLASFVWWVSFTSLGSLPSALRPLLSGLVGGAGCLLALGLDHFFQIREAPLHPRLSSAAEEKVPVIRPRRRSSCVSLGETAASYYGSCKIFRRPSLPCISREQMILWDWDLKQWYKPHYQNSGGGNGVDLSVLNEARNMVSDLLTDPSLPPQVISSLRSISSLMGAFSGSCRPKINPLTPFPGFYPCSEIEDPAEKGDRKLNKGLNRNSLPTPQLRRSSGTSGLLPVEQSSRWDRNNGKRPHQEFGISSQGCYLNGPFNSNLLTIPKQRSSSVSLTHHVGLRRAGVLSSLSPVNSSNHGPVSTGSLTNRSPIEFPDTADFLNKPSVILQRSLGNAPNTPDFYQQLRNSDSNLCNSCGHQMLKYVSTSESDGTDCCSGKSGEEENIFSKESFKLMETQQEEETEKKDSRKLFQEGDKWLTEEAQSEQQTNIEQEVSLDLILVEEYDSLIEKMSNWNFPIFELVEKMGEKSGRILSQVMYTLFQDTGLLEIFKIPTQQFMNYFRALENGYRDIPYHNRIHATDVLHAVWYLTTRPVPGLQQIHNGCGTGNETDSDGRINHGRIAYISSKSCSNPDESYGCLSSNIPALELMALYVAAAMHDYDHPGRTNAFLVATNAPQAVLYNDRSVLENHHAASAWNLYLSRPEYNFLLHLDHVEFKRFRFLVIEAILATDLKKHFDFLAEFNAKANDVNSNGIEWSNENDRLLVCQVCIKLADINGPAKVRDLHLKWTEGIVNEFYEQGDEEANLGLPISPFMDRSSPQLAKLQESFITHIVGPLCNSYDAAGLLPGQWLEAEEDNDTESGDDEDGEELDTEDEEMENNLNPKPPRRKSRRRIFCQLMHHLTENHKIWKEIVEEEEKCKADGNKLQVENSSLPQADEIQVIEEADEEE
UniProt Q9H792: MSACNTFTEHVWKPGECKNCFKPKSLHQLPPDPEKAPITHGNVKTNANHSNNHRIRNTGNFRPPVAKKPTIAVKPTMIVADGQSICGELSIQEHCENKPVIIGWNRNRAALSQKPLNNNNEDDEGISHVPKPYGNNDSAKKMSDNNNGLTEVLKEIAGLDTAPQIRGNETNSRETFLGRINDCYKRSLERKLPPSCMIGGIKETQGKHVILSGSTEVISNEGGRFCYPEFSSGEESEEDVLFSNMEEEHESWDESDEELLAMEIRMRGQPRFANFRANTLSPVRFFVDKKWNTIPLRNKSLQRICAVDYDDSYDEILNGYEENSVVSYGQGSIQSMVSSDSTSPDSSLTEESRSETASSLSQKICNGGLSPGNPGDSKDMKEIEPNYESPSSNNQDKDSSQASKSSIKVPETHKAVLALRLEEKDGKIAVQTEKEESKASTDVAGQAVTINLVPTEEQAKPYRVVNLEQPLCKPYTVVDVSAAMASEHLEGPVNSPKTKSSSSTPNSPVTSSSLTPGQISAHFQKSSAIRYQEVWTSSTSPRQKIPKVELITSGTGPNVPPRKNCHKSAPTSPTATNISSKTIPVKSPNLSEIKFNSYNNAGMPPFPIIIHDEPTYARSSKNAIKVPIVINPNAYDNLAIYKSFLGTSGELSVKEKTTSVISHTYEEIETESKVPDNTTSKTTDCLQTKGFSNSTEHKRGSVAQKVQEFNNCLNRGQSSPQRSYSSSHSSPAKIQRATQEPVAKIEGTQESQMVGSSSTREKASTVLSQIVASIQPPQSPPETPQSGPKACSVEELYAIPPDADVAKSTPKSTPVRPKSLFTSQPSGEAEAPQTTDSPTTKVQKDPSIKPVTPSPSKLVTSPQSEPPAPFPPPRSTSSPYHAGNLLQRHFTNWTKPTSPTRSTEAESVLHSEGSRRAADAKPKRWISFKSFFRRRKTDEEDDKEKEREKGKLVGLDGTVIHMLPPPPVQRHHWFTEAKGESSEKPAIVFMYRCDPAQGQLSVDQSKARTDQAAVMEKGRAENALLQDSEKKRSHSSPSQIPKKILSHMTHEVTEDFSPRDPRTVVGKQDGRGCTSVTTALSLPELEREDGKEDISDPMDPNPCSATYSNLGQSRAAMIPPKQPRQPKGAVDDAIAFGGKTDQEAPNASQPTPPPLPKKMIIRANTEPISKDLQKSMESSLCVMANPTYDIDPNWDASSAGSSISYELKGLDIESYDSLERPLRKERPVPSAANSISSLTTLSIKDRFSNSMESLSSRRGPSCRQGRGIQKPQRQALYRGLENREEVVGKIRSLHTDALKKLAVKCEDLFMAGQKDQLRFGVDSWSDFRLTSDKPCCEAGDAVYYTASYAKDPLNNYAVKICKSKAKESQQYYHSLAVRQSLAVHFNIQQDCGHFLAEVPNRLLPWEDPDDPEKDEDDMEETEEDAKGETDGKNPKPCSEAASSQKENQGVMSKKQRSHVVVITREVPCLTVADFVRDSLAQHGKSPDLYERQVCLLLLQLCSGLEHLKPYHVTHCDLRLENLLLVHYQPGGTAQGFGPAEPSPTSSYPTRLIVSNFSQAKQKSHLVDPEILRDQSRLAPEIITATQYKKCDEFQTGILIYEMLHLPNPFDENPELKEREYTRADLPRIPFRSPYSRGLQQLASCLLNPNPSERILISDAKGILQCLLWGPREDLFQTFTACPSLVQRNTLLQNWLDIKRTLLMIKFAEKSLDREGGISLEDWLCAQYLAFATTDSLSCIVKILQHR
UniProt Q15154: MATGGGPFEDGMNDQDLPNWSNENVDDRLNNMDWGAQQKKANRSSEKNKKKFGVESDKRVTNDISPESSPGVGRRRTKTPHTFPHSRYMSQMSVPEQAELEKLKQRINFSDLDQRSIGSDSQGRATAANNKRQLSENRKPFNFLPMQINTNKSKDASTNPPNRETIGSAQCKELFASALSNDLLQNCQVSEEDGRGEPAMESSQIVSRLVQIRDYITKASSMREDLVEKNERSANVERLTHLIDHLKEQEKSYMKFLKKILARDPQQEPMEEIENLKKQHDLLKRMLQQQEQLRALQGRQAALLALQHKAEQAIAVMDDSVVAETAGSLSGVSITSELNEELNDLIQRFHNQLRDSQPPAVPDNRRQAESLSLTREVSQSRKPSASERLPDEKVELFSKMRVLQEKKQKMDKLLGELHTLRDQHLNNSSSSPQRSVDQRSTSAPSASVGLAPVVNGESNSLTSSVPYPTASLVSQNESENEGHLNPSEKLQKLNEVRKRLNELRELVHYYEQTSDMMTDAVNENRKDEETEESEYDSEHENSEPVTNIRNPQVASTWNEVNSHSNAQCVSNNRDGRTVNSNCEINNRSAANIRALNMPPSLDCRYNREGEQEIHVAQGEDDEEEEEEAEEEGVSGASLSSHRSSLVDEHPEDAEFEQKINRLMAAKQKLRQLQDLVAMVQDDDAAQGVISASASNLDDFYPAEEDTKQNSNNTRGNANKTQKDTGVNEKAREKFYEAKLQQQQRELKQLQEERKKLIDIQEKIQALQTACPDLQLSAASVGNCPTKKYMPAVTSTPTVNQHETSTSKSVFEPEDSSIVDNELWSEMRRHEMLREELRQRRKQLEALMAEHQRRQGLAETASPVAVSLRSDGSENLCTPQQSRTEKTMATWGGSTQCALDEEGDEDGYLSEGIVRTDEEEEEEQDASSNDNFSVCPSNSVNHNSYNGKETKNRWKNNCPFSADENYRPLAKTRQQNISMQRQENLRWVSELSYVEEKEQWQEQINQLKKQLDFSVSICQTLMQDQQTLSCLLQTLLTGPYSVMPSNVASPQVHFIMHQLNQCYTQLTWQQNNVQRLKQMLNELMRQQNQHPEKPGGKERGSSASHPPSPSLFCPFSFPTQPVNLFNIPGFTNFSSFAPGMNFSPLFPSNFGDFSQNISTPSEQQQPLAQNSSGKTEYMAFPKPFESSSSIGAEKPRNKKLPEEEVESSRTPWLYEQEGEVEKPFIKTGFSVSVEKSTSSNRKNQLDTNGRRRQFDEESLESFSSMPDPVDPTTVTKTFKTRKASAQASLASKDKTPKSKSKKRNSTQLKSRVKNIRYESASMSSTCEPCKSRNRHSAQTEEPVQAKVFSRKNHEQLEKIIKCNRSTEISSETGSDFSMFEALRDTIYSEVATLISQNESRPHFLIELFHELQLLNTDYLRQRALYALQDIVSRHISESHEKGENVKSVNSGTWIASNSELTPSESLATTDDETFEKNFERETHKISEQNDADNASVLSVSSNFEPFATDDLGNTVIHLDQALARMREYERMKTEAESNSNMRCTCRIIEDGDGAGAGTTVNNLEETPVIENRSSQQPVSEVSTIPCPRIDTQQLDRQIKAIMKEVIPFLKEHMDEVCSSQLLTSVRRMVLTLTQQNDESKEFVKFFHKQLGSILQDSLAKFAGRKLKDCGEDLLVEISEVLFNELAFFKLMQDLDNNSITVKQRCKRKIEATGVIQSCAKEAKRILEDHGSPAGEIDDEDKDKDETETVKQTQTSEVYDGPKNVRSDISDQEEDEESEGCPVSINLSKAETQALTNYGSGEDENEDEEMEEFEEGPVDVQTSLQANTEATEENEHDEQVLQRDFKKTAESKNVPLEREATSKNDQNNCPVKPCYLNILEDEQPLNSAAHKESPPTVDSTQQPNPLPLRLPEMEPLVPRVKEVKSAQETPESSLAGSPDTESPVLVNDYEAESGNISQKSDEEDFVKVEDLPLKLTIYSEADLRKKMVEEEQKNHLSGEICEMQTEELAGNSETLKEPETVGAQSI
UniProt Q29RF7, 1-22: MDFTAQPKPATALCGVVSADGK
UniProt Q9H074: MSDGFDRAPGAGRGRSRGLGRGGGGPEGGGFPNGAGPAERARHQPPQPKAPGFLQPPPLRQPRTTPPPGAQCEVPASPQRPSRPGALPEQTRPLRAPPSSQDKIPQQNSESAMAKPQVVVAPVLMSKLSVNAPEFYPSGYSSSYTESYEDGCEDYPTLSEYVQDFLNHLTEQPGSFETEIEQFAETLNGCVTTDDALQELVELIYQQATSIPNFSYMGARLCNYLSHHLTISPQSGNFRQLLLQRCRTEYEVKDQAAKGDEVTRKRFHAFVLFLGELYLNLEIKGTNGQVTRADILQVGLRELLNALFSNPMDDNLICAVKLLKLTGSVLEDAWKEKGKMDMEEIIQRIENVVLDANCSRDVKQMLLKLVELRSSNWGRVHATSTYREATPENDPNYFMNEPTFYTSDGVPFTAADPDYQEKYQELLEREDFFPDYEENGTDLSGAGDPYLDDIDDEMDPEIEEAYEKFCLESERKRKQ
UniProt P55809: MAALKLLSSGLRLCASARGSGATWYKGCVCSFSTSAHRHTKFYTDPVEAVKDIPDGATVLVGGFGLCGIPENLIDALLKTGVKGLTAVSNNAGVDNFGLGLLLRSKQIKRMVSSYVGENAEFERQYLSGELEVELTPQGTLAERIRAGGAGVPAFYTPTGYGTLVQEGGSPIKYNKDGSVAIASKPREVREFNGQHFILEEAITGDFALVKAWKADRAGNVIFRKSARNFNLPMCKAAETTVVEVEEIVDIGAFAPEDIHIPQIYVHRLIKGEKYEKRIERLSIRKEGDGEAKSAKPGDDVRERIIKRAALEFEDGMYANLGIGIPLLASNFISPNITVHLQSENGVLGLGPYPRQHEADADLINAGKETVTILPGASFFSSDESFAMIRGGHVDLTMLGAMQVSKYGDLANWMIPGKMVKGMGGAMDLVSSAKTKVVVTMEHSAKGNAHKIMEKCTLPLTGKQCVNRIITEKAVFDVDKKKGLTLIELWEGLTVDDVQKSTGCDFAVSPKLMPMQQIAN
UniProt Q15121, whole entry, looked up: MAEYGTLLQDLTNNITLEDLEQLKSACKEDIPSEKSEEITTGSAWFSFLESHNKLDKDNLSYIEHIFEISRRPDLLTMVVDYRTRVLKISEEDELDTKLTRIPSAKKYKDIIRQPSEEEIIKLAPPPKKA

How the values were obtained:
[1] = compound: ClCC(=O)N[C@@H]1CCCc2ccccc12; assay: log2 mean competition ratio of IA-DTB cysteine labelling (DMSO/compound) (log2 ratio); higher = stronger cysteine engagement by compound; conditions: treatment time: 4 h, cell line lysate: HEK293T
Experimental: (§1)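 IA-DTB competitive cysteine chemoproteomics in HEK293T RIPA lysate. Lysates were treated with compound 29 or 30 at 50 or 200 µM for 4 h, then IA-DTB (500 µM, 1 h), trypsin-digested, NeutrAvidin-enriched and analysed by diaPASEF. Competition ratio = intensity DMSO / intensity compound (n=4 treated, n=64 DMSO); binding: mean log2 CR ≥ 1 and p ≤ 0.05 plus QC filters. Target is the cysteine site.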

[2] = compound: ClCC(=O)N[C@H]1CCCc2ccccc12; assay: as above; conditions: treatment time: 4 h, cell line lysate: HEK293T
Experimental: as §1

Target | log2 mean competition ratio ([1]; 50 µM) | log2 mean competition ratio ([1]; 200 µM) | log2 mean competition ratio ([2]; 50 µM) | log2 mean competition ratio ([2]; 200 µM)
PCIF1 C255 (UniProt Q9H4Z3) | -0.137 | -0.0936 | -0.259 | 0.0717
PCK2 C559 (UniProt Q16822) | 0.067 | 0.188 | -0.115 | 0.188
PHC3 C816 (UniProt Q8NDX5) | -0.0215 | -0.0388 | 0.0515 | -0.00409
PDHB C263 (UniProt P11177) | -0.255 | -0.239 | -0.0764 | -0.198
PCMTD1 C238 (UniProt Q96MG8) | -0.123 | 0.109 | 0.335 | 0.178
PDE3B C35 (UniProt Q13370) | 0.0522 | -0.0813 | – | -0.051
PEAK1 C685 (UniProt Q9H792) | -0.0796 | 0.249 | -0.0897 | 0.19
PCM1 C171 (UniProt Q15154) | -0.0628 | 0.241 | 0.116 | 0.279
PCIF1 C455 (UniProt Q9H4Z3) | 0.101 | -0.0368 | -0.167 | -0.281
PDS5A C430 (UniProt Q29RF7) | 0.158 | -0.39 | -0.00281 | -0.369
PAIP1 C470 (UniProt Q9H074) | -0.0626 | -0.0417 | -0.381 | 0.0255
OXCT1 C235 (UniProt P55809) | 0.0472 | -0.0345 | 0.218 | -0.0485
PDS5A C14 (UniProt Q29RF7) | -0.0748 | 0.161 | 0.116 | 0.236
PCK2 C151 (UniProt Q16822) | -0.094 | 0.425 | -0.571 | 0.44
PGM2L1 C348 (UniProt Q6PCE3) | -0.174 | -0.08 | 0.081 | -0.0456
PEA15 C27 (UniProt Q15121) | -0.123 | -0.0954 | 0.0255 | -0.23

Record cards, from the list above. Values in the order: log2 mean competition ratio ([1]; 50 µM)	log2 mean competition ratio ([1]; 200 µM)	log2 mean competition ratio ([2]; 50 µM)	log2 mean competition ratio ([2]; 200 µM)
PDHB C263 (UniProt P11177) as listed: -0.255	-0.239	-0.0764	-0.198
PDS5A C14 (UniProt Q29RF7) as listed: -0.0748	0.161	0.116	0.236
